The text below walks through data of article PMC6120983, “Chimeric Proteins Containing MAP-1 and Functional Domains of C4b-Binding Protein Reveal Strong Complement Inhibitory Capacities” (Frontiers in Immunology, 2018).

Protein sequences, listed by entry. Tags and fused reporters are not part of them. Residues count along the entry.
UniProt P11226, residues 21-248: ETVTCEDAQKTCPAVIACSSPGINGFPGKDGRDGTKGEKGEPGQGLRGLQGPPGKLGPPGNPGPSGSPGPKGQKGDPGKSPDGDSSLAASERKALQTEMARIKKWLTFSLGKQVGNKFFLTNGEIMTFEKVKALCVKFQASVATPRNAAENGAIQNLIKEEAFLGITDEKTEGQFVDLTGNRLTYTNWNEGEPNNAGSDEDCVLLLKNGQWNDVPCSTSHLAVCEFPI
UniProt Q9BWP8, residues 26-271: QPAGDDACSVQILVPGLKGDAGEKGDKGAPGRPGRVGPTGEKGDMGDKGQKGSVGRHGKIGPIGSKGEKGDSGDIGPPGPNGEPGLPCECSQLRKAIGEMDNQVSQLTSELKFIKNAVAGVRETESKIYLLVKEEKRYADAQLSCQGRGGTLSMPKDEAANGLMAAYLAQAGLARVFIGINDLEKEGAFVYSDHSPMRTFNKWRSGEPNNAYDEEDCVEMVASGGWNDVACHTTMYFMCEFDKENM

Results are given in words; binding and its absence hold for the method and conditions named.

One assay concerns the target recombinant MBL (UniProt P11226 21-248). The assay is described as follows: ELISA; as a1 but in TBS/Tween/EDTA (10 mM EDTA); both purified.
The next assay has as its target T1, recombinant CL-11 (UniProt Q9BWP8 26-271).
T1 construct: collectin-11 (CL-11, CL-K1); Held on mannan-coated wells in the ELISA; also called rCL-11; collectin-11; source: produced in house
Described as above.

B1: recombinant MAP-1 (natural protein, human, UniProt P48740-3 20-380, looked up)
chain: HTVELNNMFGQIQSPGYPDSYPSDSEVTWNITVPDGFRIKLYFMHFNLESSYLCEYDYVKVETEDQVLATFCGRETTDTEQTPGQEVVLSPGSFMSITFRSDFSNEERFTGFDAHYMAVDVDECKEREDEELSCDHYCHNYIGGYYCSCRFGYILHTDNRTCRVECSDNLFTQRTGVITSPDFPNPYPKSSECLYTIELEEGFMVNLQFEDIFDIEDHPEVPCPYDYIKIKVGPKVLGPFCGEKAPEPISTQSHSVLILFHSDNSGENRGWRLSYRAAGNECPELQPPVHGKIEPSQAKYFFKDQVLVSCDTGYKVLKDNVEMDTFQIECLKDGTWSNKIPTCKKNEIDLESELKSEQVTE
Regarding B1, the binding entry with recombinant MBL and in the assay with recombinant CL-11 was “no binding (condition: with 10 mM EDTA (up to 13.5 nM))” throughout.
